Data: patent US20170296505A1, “LONG-CHAIN CARBOXYCHROMANOLS AND ANALOGS FOR USE AS ANTI-INFLAMMATORY AGENTS” (Purdue Research Foundation, priority 2008, published 2017)
At least one structure is not confirmed: it was looked up by name or label, or the drawing left a doubt.

Tested on: PGE2 in IL-1β treated A549 cells
Assay: PGE2 generation during chronic IL-1β treatment
Type: cell-based, human
Settings: in the presence of 1 μM sesamin
Experimental: (§1) A549 cells were pre-incubated with different concentrations of tocopherols in the presence or absence of 1 μM sesamin for 15 h, and then treated with IL-1β (2 ng/mL) for 24 h. PGE2 in the cell-culture media was measured by ELISA assays. Results are the averages of three independent experiments and expressed as Mean±SEM.
as §1, with “tocotrienols” for “tocopherols”
PGE2 generation during chronic IL-1β treatment—2.5−3×10^5 A549 cells per well were seeded in RPMI-1640 with 10% of FBS and allowed to attach overnight in a 24-well plate. Vitamin E stock solutions were initially made in DMSO and then diluted in 10 mg/mL of bovine serum albumin. Confluent cells were incubated in DMEM containing 1% FBS with DMSO (control) or vitamin E forms for 14-16 h and then 2 ng/ml of IL-1β was introduced for 24 hours. The medium was then collected and PGE2 accumulation was measured using ELISA assay from Cayman Chemicals (Ann Arbor, Mich.).
Statistical analysis—The unpaired student's t-test was used in the statistical analysis. All results are expressed as mean±SD. […]

In the case of `Cc1c(O)cc2c(c1C)OC(C)(CCCC(C)CCCC(C)CCCC(C)C)CC2` (stereo not shown) [γ-T], the “effect of sesamin on the inhibitory potency on PGE2” value is reported as “significantly reduced”.
